# Experimental data as given in PubChem BioAssay AID493014 (National Center for Advancing Translational Sciences (NCATS), 2011).
# Among all 340,000 compounds or so, about 170 (0.05%) were called active. The shares of active, inactive and inconclusive entries below differ from those in the screen. Calls follow the shape of the dose curve; as a rule, active = well fitted inhibition curve with a large enough effect in the signal ratio, with a control signal flat (not every such curve was filed as active); inconclusive = small, poorly fitted or top-dose-only effect, or effect the other way, or a change in a side signal; inactive = flat fitted curve, though single readings scatter; the % refers to the signal ratio. Potencies beside an inconclusive call are fits to weak or partial responses and may not hold up.
# Assay: qHTS Assay to Find Inhibitors of Chronic Active B-Cell Receptor Signaling;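 as to activity change, negative = inhibition: plate controls were basal doxycycline-induced cells for no effect and cells given 10 µM MG132 for full effect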
# Conditions: ABC-DLBCL IkBa-CBG/CBR reporter, luminescence ratio (green luciferase fused to IkBa over red control in TMD8 lymphoma cells), 4 h; activity change, negative = inhibition: at 46.1 µM (top of the series) unless noted
# Outline: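 Doxycycline induced both beetle luciferases in TMD8 lymphoma cells; IKK-driven degradation limits the IkappaBalpha-fused green signal, while red luminescence normalises for cell number and nonspecific effects. Compounds tested up to 46 uM, 4 hrs.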
# Potency is read from the fitted curve at half-maximal effect.
Compound,Potency,"activity change, negative = inhibition"
COc1ccc(-c2nnc(SCC(=O)N/N=C/c3ccccc3C(=O)O)n2-c2ccc(Cl)cc2)cc1,"inconclusive: 11.2 µM [rising, partial curve, poor fit]",–
CCCCSc1nnc(-c2ccccc2N)c(=O)[nH]1,–,inconclusive: -9.43%
CCCCCCC(=O)Nc1nc(C)c(-c2csc(Nc3cc(OC)ccc3OC)n2)s1,"inconclusive: 35.5 µM [falling, single point]",–
Cn1cccc1C1(C(F)(F)F)NCCNC1=O (centres undefined),–,inconclusive: 0.225%
COc1cccc(-c2cc(C(=O)Nc3cnn(Cc4ccc(F)cc4)c3)no2)c1,–,inconclusive: -1.47%
Nc1ccccc1C(=O)NNc1c2ccccc2nc2ccccc12,–,inactive
O=C(Oc1ccc2c(c1)OCO2)c1cc2c(s1)CCC2,–,inconclusive: 8.48%
Cc1cc(C)nc(Nc2nc(=O)c3ccccc3s2)n1,"inconclusive: 35.5 µM [falling, partial curve, poor fit]",–
Nc1ncnc2c1ncn2C1OC(CO)C(O)C1O (centres undefined),–,inconclusive: -3.18%
CN(C)c1ccc(-c2ccc([C@H]3[C@@H]4C=CCC[C@@]4(C)C(=O)N3Cc3ccccc3)c(F)c2)cc1,–,inconclusive: 3.5%
Cc1ccc(CNc2ncc(-c3ccc4c(c3)OCO4)n2C)cc1,–,inconclusive: 0.126%
CC(=O)N1CCN(C(=O)c2ccccc2NS(=O)(=O)c2ccc(F)cc2)CC1,–,inactive
Cc1ccccc1C(=O)OCc1cnc(Cl)s1,–,inconclusive: 10.5%
COc1ccc(N2CCN(C(=O)c3cc(-c4ccc(F)cc4)[nH]c3C)CC2)cc1,"inconclusive: 12.6 µM [falling, partial curve, poor fit]",–
CCCC12CN3CCN(CC(C3)/C1=N\NC(=O)c1ccccc1Cl)C2,"inconclusive: 7.08 µM [falling, partial curve]",–
CCN(CC(=O)Nc1c(F)cccc1F)C(=O)c1ccc(-c2ccc(C(C)=O)cc2)o1,–,inconclusive: -1.23%
COC(=O)C1=C(C)N(CCC2=CCCCC2)C(=O)C1,–,inconclusive: -16.2%
Cc1ccc(/C=C/C(=O)Nc2ccc([N+](=O)[O-])cc2)o1,–,inactive
Cc1ccccc1/C=N/NC(=O)Cn1cnc([N+](=O)[O-])n1,–,inconclusive: -0.418%
COc1cccc(-c2ccc3ncnc(NCc4ccc5c(c4)OCO5)c3c2)c1,"inconclusive: 20.6 µM [falling, single point]",inconclusive: -11.1%
Cc1ccc(-c2nc(NCc3cccnc3)c3ccccc3n2)cc1,–,inactive

Compound,Potency,"activity change, negative = inhibition"
c1ccn(-c2ccc(-c3ccn[nH]3)cc2)c1,–,inconclusive: -18.5%
CCOc1ccc(-c2cc(CCCC(=O)NCCc3ccc(OC)c(OC)c3OC)no2)cc1,"inconclusive: 35.5 µM [falling, single point]",–
Cc1cc(C)nc(SC(C(=O)O)c2ccccc2)n1 (centres undefined),–,inconclusive: 8.06%
CCn1cc([N+](=O)[O-])c(C(=O)N2N=C(c3ccccc3)CC2c2ccc([N+](=O)[O-])cc2)n1 (centres undefined),–,inconclusive: 0.302%
Cc1nc(N2CCOCC2)[nH]c(=O)c1[N+](=O)[O-],–,inconclusive: 0.968%
Cc1ccc(S(=O)(=O)NNC(=O)c2ccccc2O)cc1,–,inactive
O=S(=O)(NC(=S)NC1CCCCC1)c1ccc(Br)cc1,–,inactive
O=C(Cc1ccc(-c2ccccc2)cc1)Nc1ccccn1,–,inactive
COc1ccc(-c2cc(-c3cccs3)c(C#N)c(SCC(=O)NCc3ccco3)n2)cc1,–,inconclusive: -3.47%
CN(Cc1nccs1)C(=O)c1ccc(OC2CCN(CCc3ccccc3)CC2)cc1,–,inactive
Oc1ccccc1/C=N/Nc1cccc2cccnc12,"inconclusive: 35.5 µM [falling, single point]",–
CCN(C(=O)COC(=O)/C(=C/c1ccccc1)n1nnnc1C)C1CCCCC1,–,inconclusive: -2.56%
CCOC(=O)CSc1nnc(CSc2nc(C)cc(C)n2)n1Cc1ccco1,–,inconclusive: -15.8%
O=C(Nc1ccc2nsnc2c1)N1CCCCC1,–,inconclusive: -1.9%
O=C(CN1CCc2cc3c(cc2C1)OCCCO3)Nc1cccc(Br)c1,–,inconclusive: -21%
Cc1cc(C)n(-c2nc(-c3cccc(Cl)c3)cs2)n1,–,inconclusive: 14.7%
O=C(Nc1ncc([N+](=O)[O-])s1)C1COc2ccccc2O1 (centres undefined),"inconclusive: 7.08 µM [rising, full curve]",–
COc1cc(OC)cc(-c2cc3ccc(OC)cc3cn2)c1,"inconclusive: 29.1 µM [falling, partial curve]",–
O=C(NCC(=O)N1CCN(Cc2ccc3c(c2)OCO3)CC1)c1ccccc1F,–,inconclusive: 3.84%
Cc1ccc(C(=O)Nc2ccc(N3CCN(S(C)(=O)=O)CC3)cc2)cc1C,–,inactive
O=[N+]([O-])c1ccc(N2CCCCC2)cn1,–,inactive

Compound,Potency,"activity change, negative = inhibition"
COc1ccc(Nc2cc(C)nc3ccc(OC)cc23)cc1,–,inconclusive: 3.29%
CC(=O)N1CCc2cc(S(=O)(=O)N3CCCCCC3)ccc21,–,inconclusive: 2.02%
CN(C(=O)c1cccc(S(=O)(=O)N2CCOCC2)c1)c1c(N)n(Cc2ccccc2)c(=O)[nH]c1=O,–,inactive
Cc1ccc(Nc2nnc(SCC(=O)c3cc4ccccc4o3)s2)cc1C,–,inconclusive: 0.453%
Cc1cc(=O)n(C)c(=O)n1CCCCCCOc1cccc([N+](=O)[O-])c1,–,inactive
COc1cccc(C2=CC(c3ccccc3)n3nnnc3N2)c1 (centres undefined),–,inactive
CC(C)(C)N1C(=O)[C@H]2[C@@H](c3ccc(Br)cc3)N3C(=O)N(c4ccccc4)C(=O)[C@@]3(Cc3ccccc3)[C@H]2C1=O,–,inconclusive: -0.543%
CCc1ccc2c(c1)C1(C(=O)N2)N2CCCC2C(C(=O)c2ccc3ccccc3c2)C12C(=O)Nc1ccccc12 (centres undefined),–,inconclusive: 28.4%
O=[N+]([O-])c1ccc(N/N=C2/CCCCC2c2ccccn2)cc1 (centres undefined),"inconclusive: 18.4 µM [falling, single point]",–
CC(C)(C)c1nn(-c2ccccc2)c2[nH]c(=O)c(CNc3ccc4c(c3)OCCO4)cc12,–,inactive
O=C(CSc1nnc(CNc2ccc(F)cc2)n1CC1CCCO1)Nc1ccccc1 (centres undefined),–,inconclusive: -26.7%
N=c1oc2cc(O)ccc2cc1C(=O)Nc1ccc(Br)cc1,–,inconclusive: 392%
Cc1cc(NC(=O)CCC(=O)N(CC(=O)NC2CCCC2)Cc2ccc(F)cc2)no1,–,inconclusive: 1.74%
COc1cc(NC(=O)CN(c2ccc(C)cc2)S(=O)(=O)c2c(C)noc2C)cc(OC)c1,–,inconclusive: 10.5%
O=C(Nc1cccc(O)c1)c1cccc(NC(=O)c2cccs2)c1,"inconclusive: 22.4 µM [falling, single point]",–
COCC(C)n1c(COc2ccccc2F)nnc1SCc1c(C)noc1C (centres undefined),"inconclusive: 20.6 µM [falling, partial curve]",–
Cc1c(Cl)cccc1NC(=O)CCC(=O)c1cccs1,–,inconclusive: 1.54%
O=C(CCc1ccccc1)Nc1ccccc1[N+](=O)[O-],–,inactive
CC(C)NC(=O)CCS(=O)(=O)c1cccc2nonc12,–,inconclusive: -7.23%
CN(CC(=O)Nc1cccc(F)c1)C(=O)COc1cccc2c1OC(C)(C)C2,–,inactive
COc1ccc(S(=O)(=O)N2N=C(c3ccc(NS(C)(=O)=O)cc3)CC2c2ccco2)cc1 (centres undefined),–,inconclusive: -18.4%

# Looked up by structure from above, 5 records:
Compound,Potency,"activity change, negative = inhibition"
COc1cc(OC)cc(-c2cc3ccc(OC)cc3cn2)c1,"inconclusive: 29.1 µM [falling, partial curve]",–
Cc1ccc(S(=O)(=O)NNC(=O)c2ccccc2O)cc1,–,inactive
CC(C)NC(=O)CCS(=O)(=O)c1cccc2nonc12,–,inconclusive: -7.23%
O=S(=O)(NC(=S)NC1CCCCC1)c1ccc(Br)cc1,–,inactive
Cc1cc(=O)n(C)c(=O)n1CCCCCCOc1cccc([N+](=O)[O-])c1,–,inactive

# (listing goes on)

Compound,Potency,"activity change, negative = inhibition"
Cc1ccc(-c2nnc(SCC(=O)NC3CCCC3)n2N)cc1,–,inactive
Cc1[nH]n(-c2ccc([N+](=O)[O-])cc2)c(=O)c1C=NCCN1CCN(C(=O)c2ccc(Br)cc2)CC1,–,inconclusive: -29.2%
COC(=O)CSc1nc(N)c(C#N)c(C(C)C)c1C#N,–,inconclusive: 5.01%
O=C(Nc1ccc(F)c(Cl)c1)N1CCCCCC1,–,inactive
O=C(Nc1ccc(N2CCCCC2)cc1)c1ccc([N+](=O)[O-])o1,"inconclusive: 35.5 µM [falling, single point]",–
CN(C)S(=O)(=O)c1cccc(NC(=O)C(c2ccccc2)c2ccccc2)c1,–,inconclusive: 1.3%
COc1ccccc1/C=C(\NC(=O)c1ccc(OC)c(OC)c1)C(=O)Nc1cccc([N+](=O)[O-])c1,–,inconclusive: -10.7%
CCCc1ccc2oc(C(=O)N3CCCC3)c(C)c2c1,–,inconclusive: 2.15%
CC(C)(C)c1ccc(C(=O)NNC(=O)CNC(=O)c2cccs2)cc1,–,inactive
Cc1cccc(C)c1-n1c(C)nn(-c2ncc(C(F)(F)F)cc2Cl)c1=O,–,inconclusive: 1.04%
CCOC(=S)SCC(=O)Nc1nc(-c2ccc(Br)cc2)cs1,–,inconclusive: 0.0664%
Cc1cc(/C=C2\SC(=S)NC2=O)c(C)n1-c1cccc(O)c1,–,inconclusive: 18.6%
CC1(C)COC(Cn2c3ccccc3c3ccccc32)O1 (centres undefined),"inconclusive: 35.5 µM [falling, partial curve, poor fit]",–
CCCCSc1nnc2nc(C)cc(C)n12,–,inconclusive: 25.7%
CCCCN(CCCC)Cc1ccc(C(=O)NNC(=O)Nc2ccccc2)o1,–,inactive
CCn1c(-c2ccc(-c3ccccc3)cc2)c[nH]c1=S,–,inactive
O=S(=O)(c1ccc(NC(=S)NN=C2CCCCC2)cc1)N1CCOCC1,"inconclusive: 25.1 µM [falling, single point]",–
C=CCn1c(SCC(=O)Nc2cc(Cl)ccc2C(=O)O)nc2sc(C)c(C)c2c1=O,–,inconclusive: -15.2%
CS(=O)(=O)N1CCN(CC2CC3C=CC2C3)CC1 (centres undefined),–,inconclusive: 10.7%
O=S(=O)(/N=C(/Nc1cccc2ccccc12)c1ccccc1)c1ccc(Br)cc1,–,inconclusive: 2.84%
